Source: the supplement of paper PMC11006884
The entries are a selection whose mix differs from that of the whole data set. Single values of this set are uncertain.

By UniProt entry, the sequences of proteins in these tests, tags left out. Where a name states a change or a piece, a line headed by the entry shows the natural chain unless it says otherwise.
UniProt P21127: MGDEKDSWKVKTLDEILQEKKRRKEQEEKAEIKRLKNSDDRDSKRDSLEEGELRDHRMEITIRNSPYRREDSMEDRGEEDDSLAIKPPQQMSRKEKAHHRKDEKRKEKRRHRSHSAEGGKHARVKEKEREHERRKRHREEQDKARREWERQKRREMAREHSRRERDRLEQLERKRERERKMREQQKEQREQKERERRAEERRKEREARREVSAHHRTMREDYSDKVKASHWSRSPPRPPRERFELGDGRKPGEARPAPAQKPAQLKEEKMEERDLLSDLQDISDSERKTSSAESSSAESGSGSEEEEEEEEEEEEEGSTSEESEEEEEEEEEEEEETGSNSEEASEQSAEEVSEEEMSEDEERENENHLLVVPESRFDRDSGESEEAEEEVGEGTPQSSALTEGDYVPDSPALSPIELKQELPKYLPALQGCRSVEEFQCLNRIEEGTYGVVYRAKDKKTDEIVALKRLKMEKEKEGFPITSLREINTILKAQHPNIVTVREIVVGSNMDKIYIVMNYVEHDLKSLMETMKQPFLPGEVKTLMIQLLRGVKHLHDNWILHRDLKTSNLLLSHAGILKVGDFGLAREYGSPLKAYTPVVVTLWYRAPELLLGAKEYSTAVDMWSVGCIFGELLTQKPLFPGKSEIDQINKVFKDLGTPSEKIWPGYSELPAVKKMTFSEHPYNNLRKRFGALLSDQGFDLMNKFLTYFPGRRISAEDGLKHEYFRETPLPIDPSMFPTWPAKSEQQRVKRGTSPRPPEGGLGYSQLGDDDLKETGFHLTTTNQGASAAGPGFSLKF
UniProt P21333, whole entry, looked up: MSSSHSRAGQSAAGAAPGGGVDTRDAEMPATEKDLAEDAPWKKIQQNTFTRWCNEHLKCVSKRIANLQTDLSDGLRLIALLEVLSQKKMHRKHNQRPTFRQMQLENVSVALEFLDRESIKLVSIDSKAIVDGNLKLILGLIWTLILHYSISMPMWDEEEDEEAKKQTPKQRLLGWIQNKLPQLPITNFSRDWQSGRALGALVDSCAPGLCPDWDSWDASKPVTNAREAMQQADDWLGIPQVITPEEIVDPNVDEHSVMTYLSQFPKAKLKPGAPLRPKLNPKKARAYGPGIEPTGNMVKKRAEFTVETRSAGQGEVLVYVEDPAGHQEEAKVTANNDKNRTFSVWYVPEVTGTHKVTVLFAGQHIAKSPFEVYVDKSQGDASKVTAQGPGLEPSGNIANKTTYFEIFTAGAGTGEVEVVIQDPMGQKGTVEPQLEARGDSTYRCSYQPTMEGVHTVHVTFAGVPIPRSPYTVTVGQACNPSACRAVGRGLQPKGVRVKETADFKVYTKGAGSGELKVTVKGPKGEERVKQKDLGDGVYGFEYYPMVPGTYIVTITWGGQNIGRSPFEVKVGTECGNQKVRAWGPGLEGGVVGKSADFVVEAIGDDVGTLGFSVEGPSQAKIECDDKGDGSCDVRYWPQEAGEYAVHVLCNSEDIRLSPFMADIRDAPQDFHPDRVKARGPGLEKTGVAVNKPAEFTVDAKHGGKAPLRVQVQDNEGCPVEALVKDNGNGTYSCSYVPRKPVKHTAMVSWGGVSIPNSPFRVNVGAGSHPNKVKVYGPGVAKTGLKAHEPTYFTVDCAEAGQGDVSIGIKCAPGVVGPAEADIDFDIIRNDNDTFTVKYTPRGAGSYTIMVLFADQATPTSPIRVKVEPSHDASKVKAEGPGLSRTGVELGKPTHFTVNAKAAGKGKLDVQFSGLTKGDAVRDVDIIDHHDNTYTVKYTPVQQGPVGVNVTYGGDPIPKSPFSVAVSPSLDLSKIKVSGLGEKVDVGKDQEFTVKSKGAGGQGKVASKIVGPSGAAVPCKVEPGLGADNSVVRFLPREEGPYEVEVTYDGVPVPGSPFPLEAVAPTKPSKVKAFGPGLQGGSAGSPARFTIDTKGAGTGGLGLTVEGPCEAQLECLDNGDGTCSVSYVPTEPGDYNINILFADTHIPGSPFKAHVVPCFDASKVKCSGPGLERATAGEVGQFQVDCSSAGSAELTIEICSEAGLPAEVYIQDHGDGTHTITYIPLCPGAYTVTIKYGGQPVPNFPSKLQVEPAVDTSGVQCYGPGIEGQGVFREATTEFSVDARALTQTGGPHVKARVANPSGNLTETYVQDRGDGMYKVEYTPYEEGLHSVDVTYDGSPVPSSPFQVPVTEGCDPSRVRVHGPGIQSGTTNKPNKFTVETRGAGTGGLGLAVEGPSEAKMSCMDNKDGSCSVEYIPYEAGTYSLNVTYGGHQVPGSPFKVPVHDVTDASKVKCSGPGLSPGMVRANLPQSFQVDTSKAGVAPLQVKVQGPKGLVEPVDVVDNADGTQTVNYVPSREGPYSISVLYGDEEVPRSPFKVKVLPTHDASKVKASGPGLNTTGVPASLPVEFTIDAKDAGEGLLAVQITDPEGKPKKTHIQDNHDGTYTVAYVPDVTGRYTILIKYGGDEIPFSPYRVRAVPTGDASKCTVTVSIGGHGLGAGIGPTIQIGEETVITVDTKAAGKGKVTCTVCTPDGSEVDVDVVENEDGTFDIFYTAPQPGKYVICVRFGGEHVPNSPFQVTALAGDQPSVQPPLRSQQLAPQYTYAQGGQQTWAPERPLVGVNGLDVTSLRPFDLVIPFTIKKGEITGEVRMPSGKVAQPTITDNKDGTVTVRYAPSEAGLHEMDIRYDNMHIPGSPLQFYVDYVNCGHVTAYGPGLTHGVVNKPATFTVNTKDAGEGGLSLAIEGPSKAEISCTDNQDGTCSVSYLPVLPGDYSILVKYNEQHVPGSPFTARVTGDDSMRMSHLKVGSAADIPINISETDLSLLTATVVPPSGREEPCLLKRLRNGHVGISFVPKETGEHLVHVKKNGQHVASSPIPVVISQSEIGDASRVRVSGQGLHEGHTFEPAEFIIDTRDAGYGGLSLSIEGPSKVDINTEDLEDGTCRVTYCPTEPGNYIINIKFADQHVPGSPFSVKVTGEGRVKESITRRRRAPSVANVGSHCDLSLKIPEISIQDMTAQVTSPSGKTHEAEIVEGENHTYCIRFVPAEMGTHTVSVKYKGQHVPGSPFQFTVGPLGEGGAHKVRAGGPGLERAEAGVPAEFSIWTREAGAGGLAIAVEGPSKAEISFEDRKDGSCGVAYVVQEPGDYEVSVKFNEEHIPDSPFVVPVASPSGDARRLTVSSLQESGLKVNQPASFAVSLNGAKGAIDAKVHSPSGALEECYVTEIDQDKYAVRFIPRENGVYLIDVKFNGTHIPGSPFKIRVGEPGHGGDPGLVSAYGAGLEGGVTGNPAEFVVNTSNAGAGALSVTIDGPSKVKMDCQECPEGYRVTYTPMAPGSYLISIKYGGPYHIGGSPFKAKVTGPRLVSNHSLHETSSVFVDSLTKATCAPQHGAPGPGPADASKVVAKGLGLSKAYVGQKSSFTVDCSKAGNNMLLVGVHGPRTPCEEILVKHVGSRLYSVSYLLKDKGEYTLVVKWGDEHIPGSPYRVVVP
UniProt P26640: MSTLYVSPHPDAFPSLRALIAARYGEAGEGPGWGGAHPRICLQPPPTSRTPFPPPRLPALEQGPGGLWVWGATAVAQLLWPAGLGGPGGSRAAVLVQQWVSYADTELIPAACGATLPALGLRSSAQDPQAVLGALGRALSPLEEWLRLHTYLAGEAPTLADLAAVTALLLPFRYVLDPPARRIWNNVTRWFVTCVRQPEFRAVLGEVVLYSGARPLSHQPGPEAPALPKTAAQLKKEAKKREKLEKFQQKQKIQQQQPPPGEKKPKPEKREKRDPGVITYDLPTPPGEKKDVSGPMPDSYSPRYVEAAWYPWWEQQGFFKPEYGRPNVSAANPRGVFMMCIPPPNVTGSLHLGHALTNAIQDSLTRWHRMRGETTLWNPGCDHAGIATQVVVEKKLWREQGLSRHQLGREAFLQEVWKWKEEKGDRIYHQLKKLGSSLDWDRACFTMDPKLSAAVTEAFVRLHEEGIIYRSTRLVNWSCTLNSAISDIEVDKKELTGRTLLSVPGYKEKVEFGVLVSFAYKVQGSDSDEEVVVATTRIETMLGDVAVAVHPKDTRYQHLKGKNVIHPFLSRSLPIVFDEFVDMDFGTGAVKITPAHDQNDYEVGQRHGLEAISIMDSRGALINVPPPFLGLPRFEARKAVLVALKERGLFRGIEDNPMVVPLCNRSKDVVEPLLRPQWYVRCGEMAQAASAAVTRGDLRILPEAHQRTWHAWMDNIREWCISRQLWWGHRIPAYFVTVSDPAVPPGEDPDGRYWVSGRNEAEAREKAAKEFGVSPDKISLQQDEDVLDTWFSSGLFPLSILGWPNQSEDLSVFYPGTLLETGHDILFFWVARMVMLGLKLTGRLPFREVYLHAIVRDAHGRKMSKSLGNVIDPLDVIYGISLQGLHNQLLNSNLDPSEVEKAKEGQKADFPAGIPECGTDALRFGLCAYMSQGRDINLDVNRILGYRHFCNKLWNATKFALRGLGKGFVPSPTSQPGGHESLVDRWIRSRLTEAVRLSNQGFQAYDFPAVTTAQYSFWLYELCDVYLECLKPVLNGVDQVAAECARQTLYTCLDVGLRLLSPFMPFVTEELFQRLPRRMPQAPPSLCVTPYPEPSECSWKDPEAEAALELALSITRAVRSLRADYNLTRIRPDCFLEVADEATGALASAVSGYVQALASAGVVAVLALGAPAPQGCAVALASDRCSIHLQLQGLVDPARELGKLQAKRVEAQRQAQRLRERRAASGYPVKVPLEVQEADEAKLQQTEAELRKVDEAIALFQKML
UniProt P22307: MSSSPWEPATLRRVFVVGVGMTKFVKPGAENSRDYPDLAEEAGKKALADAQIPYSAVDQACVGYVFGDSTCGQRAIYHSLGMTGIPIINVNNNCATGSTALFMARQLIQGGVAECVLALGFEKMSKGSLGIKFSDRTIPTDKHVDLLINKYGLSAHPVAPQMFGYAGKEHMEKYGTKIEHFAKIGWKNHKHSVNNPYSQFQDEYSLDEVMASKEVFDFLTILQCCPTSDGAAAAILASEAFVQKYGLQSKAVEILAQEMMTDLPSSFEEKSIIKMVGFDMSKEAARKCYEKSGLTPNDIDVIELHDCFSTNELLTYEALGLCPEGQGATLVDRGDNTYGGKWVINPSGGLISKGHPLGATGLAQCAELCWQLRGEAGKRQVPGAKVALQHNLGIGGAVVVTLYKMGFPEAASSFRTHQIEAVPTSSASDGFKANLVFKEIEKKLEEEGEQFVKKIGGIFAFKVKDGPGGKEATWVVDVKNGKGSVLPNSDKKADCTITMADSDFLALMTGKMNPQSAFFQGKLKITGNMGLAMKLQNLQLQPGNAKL
UniProt P27707: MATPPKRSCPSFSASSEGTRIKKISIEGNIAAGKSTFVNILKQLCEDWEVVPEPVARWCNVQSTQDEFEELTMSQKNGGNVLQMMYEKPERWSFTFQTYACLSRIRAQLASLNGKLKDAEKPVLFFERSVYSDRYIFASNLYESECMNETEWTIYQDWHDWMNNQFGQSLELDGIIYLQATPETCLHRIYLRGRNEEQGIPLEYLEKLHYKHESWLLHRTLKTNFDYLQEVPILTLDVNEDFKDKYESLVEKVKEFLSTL
UniProt P21283, whole entry: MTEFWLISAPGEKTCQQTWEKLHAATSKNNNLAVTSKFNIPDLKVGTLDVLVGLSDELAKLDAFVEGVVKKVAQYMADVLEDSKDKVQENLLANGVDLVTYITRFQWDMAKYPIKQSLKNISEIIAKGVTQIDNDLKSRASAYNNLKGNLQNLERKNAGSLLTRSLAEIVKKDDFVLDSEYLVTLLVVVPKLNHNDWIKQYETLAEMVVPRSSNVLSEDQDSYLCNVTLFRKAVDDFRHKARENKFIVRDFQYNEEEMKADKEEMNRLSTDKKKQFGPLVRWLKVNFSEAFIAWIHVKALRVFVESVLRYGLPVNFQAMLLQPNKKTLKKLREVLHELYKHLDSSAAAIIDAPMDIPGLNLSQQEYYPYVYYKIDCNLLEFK
UniProt P20700: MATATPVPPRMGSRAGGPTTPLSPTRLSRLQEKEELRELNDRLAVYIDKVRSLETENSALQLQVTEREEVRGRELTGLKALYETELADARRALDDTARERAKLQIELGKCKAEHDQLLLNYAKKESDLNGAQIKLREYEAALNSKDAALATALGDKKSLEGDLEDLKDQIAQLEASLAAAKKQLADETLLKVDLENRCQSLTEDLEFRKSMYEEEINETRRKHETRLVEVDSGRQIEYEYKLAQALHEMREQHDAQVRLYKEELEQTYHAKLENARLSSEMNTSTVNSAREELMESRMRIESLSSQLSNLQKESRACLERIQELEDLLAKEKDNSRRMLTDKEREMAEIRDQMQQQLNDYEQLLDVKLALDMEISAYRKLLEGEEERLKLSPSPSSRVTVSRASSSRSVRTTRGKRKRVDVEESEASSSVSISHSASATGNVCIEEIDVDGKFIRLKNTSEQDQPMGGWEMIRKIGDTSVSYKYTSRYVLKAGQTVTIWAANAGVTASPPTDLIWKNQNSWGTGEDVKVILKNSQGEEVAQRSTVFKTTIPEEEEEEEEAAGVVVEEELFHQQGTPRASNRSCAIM

Each target was assayed with COC(=O)/C=C/c1ccccc1 [methyl cinnamate] (assay: log2 ratio of iodoacetamide-alkyne labeling of the cysteine site, DMSO over compound (competition); higher = stronger covalent engagement of the cysteine by the compound, active = 1 or more). Details: 500 µM; treatment time 1 h; system: HEK293T cell lysate.
Procedure, shortened: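 HEK293T lysate at 2 mg/mL was treated with vehicle or electrophile (500 µM) for 1 h at ambient temperature, then labelled with iodoacetamide alkyne (1 h), clicked to sCIP-TMT reagents, pooled, digested with trypsin overnight at 37 °C, enriched on streptavidin and eluted with acid. Peptides were analysed by Orbitrap Eclipse LC-MS/MS with FAIMS and quantified in FragPipe, using duplicate channels and three replicates, with cysteines quantified in only one replicate excluded. The log2 competition ratio for each cysteine is the mean control-channel reporter intensity divided by the mean compound-channel reporter intensity.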

log2 ratio of iodoacetamide-alkyne labeling, inactive:
LIG1 C532 (UniProt P18858) 0.258
UniProt P21127_C440 0.205
RPL17 C57 (UniProt P18621) 0.359
SFPQ C297 (UniProt P23246) -0.204
MSN C284 (UniProt P26038) 0.0351
FLNA C1165 (UniProt P21333) 0.373
RPS3 C119 (UniProt P23396) 0.181
RPL10 C105 (UniProt P27635) 0.219
PFKL C351 (UniProt P17858) 0.0942
CSRP1 C122 (UniProt P21291) -0.092
CAD C379 (UniProt P27708) 0.0935
VARS C112 (UniProt P26640) -0.281
BTF3 C22 (UniProt P20290) 0.551
PRDX3 C229 (UniProt P30048) 0.483
RASA1 C1002 (UniProt P20936) 0.162
SCP2 C71 (UniProt P22307) 0.0153
DCK C59 (UniProt P27707) -0.265
SON C1551 (UniProt P18583) 0.291
FLNA C2479 (UniProt P21333) 0.399
ATP6V1C1 C15 (UniProt P21283) -0.101
RPL10 C71 (UniProt P27635) 0.335
VARS C917 (UniProt P26640) 0.0822
SCP2 C495 (UniProt P22307) -0.08
FECH C395 (UniProt P22830) 0.267
FECH C196 (UniProt P22830) 0.136
SON C2070 (UniProt P18583) 0.38
RPL12 C17 (UniProt P30050) 0.167
UniProt P22413_C807 -0.14
TKT C386 (UniProt P29401) -0.162
ECHS1 C213 (UniProt P30084) -0.208
POLD1 C873 (UniProt P28340) 0.153
ACAT1 C142 (UniProt P24752) -0.249
VARS C41 (UniProt P26640) 0.195
VARS C682 (UniProt P26640) 0.354
DNMT1 C580 (UniProt P26358) -0.0432
DNMT1 C1226 (UniProt P26358) -0.00214
LMNB1 C110 (UniProt P20700) 0.193

Pulled one by one from above (two):
log2 ratio of iodoacetamide-alkyne labeling, inactive:
FLNA C1165 (UniProt P21333) 0.373
SCP2 C71 (UniProt P22307) 0.0153
